Test results taken from patent US20040098763A1.
These are yes or no findings as the source states them, for the method shown. Some entries that bind do so weakly or less than the wild type. For some of these results: Tags and fused reporters may be left off the sequences shown.

Sequences of proteins named here, by UniProt entry; tags and fusion partners are left off. A change or cut given only in a name is not applied to a line headed by its entry.
UniProt P04386: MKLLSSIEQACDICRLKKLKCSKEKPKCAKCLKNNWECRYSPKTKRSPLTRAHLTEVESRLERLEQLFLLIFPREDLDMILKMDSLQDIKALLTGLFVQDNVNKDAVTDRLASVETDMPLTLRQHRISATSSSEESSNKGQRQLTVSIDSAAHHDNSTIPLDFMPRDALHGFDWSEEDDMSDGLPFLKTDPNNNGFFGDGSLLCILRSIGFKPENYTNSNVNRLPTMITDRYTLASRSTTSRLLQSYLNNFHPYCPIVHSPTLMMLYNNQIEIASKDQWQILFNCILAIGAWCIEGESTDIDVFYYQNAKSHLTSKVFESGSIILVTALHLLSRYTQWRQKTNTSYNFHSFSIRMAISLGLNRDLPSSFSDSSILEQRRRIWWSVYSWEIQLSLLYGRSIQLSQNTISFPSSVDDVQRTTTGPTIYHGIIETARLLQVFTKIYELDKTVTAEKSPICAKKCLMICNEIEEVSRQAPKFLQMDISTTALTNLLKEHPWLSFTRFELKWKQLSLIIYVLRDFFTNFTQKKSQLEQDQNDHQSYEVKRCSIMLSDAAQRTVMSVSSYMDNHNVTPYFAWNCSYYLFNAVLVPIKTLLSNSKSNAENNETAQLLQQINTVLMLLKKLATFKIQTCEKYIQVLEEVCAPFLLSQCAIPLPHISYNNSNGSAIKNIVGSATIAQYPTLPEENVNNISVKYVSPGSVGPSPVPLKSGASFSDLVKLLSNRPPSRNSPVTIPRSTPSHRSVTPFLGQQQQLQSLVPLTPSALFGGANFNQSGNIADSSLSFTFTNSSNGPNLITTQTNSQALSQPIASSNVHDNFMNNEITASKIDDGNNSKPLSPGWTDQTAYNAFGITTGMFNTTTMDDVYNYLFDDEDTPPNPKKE
UniProt P24100: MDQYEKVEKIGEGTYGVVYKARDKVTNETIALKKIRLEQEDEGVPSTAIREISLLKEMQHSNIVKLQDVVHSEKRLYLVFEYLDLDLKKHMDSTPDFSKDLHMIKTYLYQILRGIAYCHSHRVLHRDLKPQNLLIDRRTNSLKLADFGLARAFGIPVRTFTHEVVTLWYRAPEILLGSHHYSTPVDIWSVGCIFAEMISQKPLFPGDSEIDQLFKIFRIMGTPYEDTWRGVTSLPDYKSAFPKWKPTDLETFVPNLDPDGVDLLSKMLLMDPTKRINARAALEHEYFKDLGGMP
UniProt P25859: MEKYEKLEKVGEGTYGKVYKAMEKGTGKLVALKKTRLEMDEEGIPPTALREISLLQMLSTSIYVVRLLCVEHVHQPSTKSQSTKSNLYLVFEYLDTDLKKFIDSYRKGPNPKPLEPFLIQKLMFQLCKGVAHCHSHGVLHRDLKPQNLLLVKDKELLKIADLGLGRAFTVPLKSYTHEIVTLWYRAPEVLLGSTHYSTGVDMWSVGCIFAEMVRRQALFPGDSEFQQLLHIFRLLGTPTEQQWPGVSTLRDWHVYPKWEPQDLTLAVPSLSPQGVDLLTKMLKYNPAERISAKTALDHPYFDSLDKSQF
UniProt P42751: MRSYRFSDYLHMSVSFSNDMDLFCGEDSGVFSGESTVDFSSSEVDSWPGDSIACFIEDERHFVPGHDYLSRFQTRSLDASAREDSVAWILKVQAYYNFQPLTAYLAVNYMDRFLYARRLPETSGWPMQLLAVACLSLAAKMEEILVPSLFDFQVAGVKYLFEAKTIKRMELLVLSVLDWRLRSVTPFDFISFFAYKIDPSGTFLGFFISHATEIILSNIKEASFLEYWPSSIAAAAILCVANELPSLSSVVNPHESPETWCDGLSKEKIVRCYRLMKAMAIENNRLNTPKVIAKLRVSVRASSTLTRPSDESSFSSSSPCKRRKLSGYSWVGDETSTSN
UniProt P42752: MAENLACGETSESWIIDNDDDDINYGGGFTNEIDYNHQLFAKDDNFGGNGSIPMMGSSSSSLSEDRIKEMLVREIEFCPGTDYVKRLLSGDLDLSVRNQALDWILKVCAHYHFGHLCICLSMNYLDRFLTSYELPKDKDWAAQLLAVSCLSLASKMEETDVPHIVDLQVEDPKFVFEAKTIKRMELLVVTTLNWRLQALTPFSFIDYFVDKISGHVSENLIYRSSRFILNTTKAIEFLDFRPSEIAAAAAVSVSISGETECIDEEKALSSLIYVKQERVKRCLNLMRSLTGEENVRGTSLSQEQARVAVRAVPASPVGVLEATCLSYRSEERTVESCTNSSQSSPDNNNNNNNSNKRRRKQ
UniProt P42753: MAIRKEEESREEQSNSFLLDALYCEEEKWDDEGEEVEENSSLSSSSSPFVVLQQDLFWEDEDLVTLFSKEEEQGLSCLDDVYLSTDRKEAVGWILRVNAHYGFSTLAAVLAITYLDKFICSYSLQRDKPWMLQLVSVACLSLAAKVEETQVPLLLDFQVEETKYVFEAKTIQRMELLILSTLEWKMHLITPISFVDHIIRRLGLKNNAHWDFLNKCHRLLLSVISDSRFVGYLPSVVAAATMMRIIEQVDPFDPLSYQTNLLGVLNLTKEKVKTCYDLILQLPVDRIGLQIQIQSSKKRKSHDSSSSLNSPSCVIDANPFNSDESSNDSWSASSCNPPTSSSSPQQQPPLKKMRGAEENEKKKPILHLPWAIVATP

B1: ICK1 in a GAL4-activation domain vector (protein, not shown: large carriers)
chain: MVRKYRKAKGIVEAGVSSTYMQLRSRRIVYVRSEKSSSVSVVGDNGVSSSCSGSNEYKKKELIHLEEEDKDGDTETSTYRRGTKRKLFENLREEEKEELSKSMENYSSEFESAVKESLDCCCSGRKTMEETVTAEEEEKAKLMTEMPTESEIEDFFVEAEKQLKEKFKKKYNFDFEKEKPLEGRYEWVKLE
B2: CKS1At (AD construct) (protein, UniProt O23249 1-87, looked up, not shown: large carriers)
chain: MGQIQYSEKYFDDTFEYRHVVLPPEVAKLLPKNRLLSENEWRAIGVQQSRGWVHYAVHRPEPHIMLFRRPLNYQQQQENQAQNMLVK
B3: ICK2 (AD construct) (protein, not shown: large carriers)
chain: MAAVRRRERDVVEENGVTTTTVKRRKMEEEVDLVESRIILSPCVQATNRGGIVARNSAGASETSVVIVRRRDSPPVEEQCQIEEEDSSVSCCSTSEEKSKRRIEFVDLEENNGDDRETETSWIYDDLNKSEESMNMDSSSVAVEDVESRRRLRKSLHETVKEAELEDFFQVAEKDLRNKLLECSMKYNFDFEKDEPLGGGRYEWVKLNP
B4: ICN7 (AD construct) (protein, not shown: large carriers)
chain: MGKYMKKSKITGDISVMEVSKATAPSPGVRTRAAKTLALKRLNSSAADSALPNDSSCYLQLRSRRLEKPSSLIEPKQPPRVHRSGIKESGSRSRVDSVNSAPVAQSSNEDECFDNFVSVQVSCGENSLGFESRHSTRESTPCNFVEDMEIMVTPGSSTRSMCRATKEYTREQDNVIPTTSEMEEFFAYAEQQQQRLFMEKYNFDIVNDIPLSGRYEWVQVKP
B5: ICN8 (AD construct) (protein, not shown: large carriers)
chain: MGKYIRKSKIDGAGAGAGGGGGGGGGGESSIALMDVVSPSSSSSLGVLTRAKSLALQQQQQRCLLQKPSSPSSLPPTSASPNPPSKQKMKKKQQQMNDCGSYLQLRSRRLQKKPPIVVIRSTKRRKQQRRNETCGRNPNPRSNLDSIRGDGSRSDSVSESVVFGKDKDLISEINKDPTFGQNFFDLEEEHTQSFNRTTRESTPCSLIRRPEIMTTPGSSTKLNICVSESNQREDSLSRSHRRRPTTPEMDEFFSGAEEEQQKQFIEKYNFDPVNEQPLPGRFEWTKVDD
B6: ICN2 (AD construct) (protein, not shown: large carriers)
chain: KKKQRERAHKNPREKKMSERKRELAEEASSTSFSPLKKTKLNDSSDSSPDSHDVIVFAVSSSSVASSAALASDECSVTIGGEESDQSSSISSGCFTSESKEIAKNSSSFGVDLEDHQIETETETSTFITSNFRKETSPVSEGLGETTTEMESSSATKRKQPGVRKTPTAAEIEDLFSELESQDDKKKQFIEKYNFDIVNDEPLEGRYKWDRL
B7: ICN6 (AD construct) (protein, not shown: large carriers)
chain: LSPEKTIMSLREMSETKPKRDSEYEGSNIKRMRLDDDDDVLRSPTRTLSSSSSSSLAYSVSDSGGFCSVALSEEEDDHLSSSISSGCSSSETNEIATRLPFSDLEAHEISETEISTLLTNNFRKQGISSSENLGETAEMDSATTEMRDQRKTEKKKKMEKSPTQAELDDFFSAAERYEQKRFTEKYNYDIVNDTPLEGRYQWVSLKP

What follows are binders tested against T1, Cdc2a (Cdc2aAt) in DB-vector (Arabidopsis) (UniProt P04386+P24100) (assay: yeast two-hybrid).

binding, binds:
B1
B2

What follows are binders tested against T2, Cdc2b (Cdc2bAt) in DB-vector (A. thaliana) (UniProt P04386+P25859) (assay: yeast two-hybrid).

binding, binds:
B2

These binders were tested against T3, CycD1 (Arath; CycD1; 1) in DB-vector (A. thaliana) (UniProt P04386+P42751) (assay: yeast two-hybrid).

binding, binds:
B1
B3
B4
B5
B6
B7

Each binder was assayed against T4, CycD2 (Arath; CycD2; 1) in DB-vector (Arabidopsis) (UniProt P04386+P42752) (assay: yeast two-hybrid).

binding, binds:
B1
B3
B4
B5
B7

What follows are binders tested against T5, CycD3 (Arath; CycD3; 1) in DB-vector (Arabidopsis) (UniProt P04386+P42753) (assay: yeast two-hybrid).

binding, binds:
B1
B3
B4
B5
B6
B7

What follows are binders tested against T1, Cdc2a (Cdc2aAt) in DB-vector (Arabidopsis) (assay: yeast two-hybrid, X-gal filter assay; ICK1 in GAL4-AD vector, partner in DB vector).

binding, binds:
B1

These binders were tested against T3, CycD1 (Arath; CycD1; 1) in DB-vector (A. thaliana) in the same assay as above.

binding, binds:
B1

What follows are binders tested against T4, CycD2 (Arath; CycD2; 1) in DB-vector (Arabidopsis) in the same assay as above.

binding, binds:
B1

What follows are binders tested against T5, CycD3 (Arath; CycD3; 1) in DB-vector (Arabidopsis) in the same assay as above.

binding, binds:
B1

The binders below were run against T1, Cdc2a (Cdc2aAt) in DB-vector (Arabidopsis) (assay: yeast two-hybrid (MaV203), X-Gal filter assay for β-galactosidase; AD construct x BD construct).

binding, binds:
B1
B2

These binders were tested against T2, Cdc2b (Cdc2bAt) in DB-vector (A. thaliana) in the same assay as above.

binding, binds:
B2

The binders below were run against T3, CycD1 (Arath; CycD1; 1) in DB-vector (A. thaliana) in the same assay as above.

binding, binds:
B1
B3
B4
B5
B6
B7

The binders below were run against T4, CycD2 (Arath; CycD2; 1) in DB-vector (Arabidopsis) in the same assay as above.

binding, binds:
B1
B4
B5
B7

The binders below were run against T5, CycD3 (Arath; CycD3; 1) in DB-vector (Arabidopsis) in the same assay as above.

binding, binds:
B1
B3
B4
B5
B6
B7
